Laboratory results: PubChem BioAssay AID1259405 (NCATS, 2018)
This is an unselected part of about 50,000 reagents. In the full data, about 4,000 (8%) are marked active. 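Mouse siRNA library applied to hamster cells; one well for each siRNA.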 Reagents against one gene are numbered here.

Aim: 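Silenced genes that increase secreted GFP made by CHO cells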 (primary screen)
System: Chinese hamster CHO-K1 ovary cells with stable secreted eGFP expression
Reagent: single siRNA against mouse genes, 0.8 pmol siRNA per well (2 µl of 400 nM stock)
Time to read-out: 3 days
Measured: 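Percent of the per-plate non-targeting control median for intracellular GFP per well by laser scanning cytometry and for cell viability by ATP luminescence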
Scale: GFP, % of control: higher = more GFP per well, higher productivity; viability (ATP), % of control: higher = more viable cells (more ATP)
Hit rule: 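a knock-down is called active if GFP reaches 120% or more of non-targeting control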

{"gene": "Ranbp6 (RAN binding protein 6)", "reagent no.": 1, "GFP, % of control": 66.9, "viability (ATP), % of control": 49.3, "outcome": "inactive"}
{"gene": "Ranbp6 (RAN binding protein 6)", "reagent no.": 2, "GFP, % of control": 65.1, "viability (ATP), % of control": 52.9, "outcome": "inactive"}
{"gene": "Ranbp6 (RAN binding protein 6)", "reagent no.": 3, "GFP, % of control": 75.9, "viability (ATP), % of control": 94.7, "outcome": "inactive"}
{"gene": "Fam174c (family with sequence similarity 174, member C)", "reagent no.": 1, "GFP, % of control": 80.4, "viability (ATP), % of control": 74, "outcome": "inactive"}
{"gene": "Fam174c (family with sequence similarity 174, member C)", "reagent no.": 2, "GFP, % of control": 73.4, "viability (ATP), % of control": 53.1, "outcome": "inactive"}
{"gene": "Fam174c (family with sequence similarity 174, member C)", "reagent no.": 3, "GFP, % of control": 76, "viability (ATP), % of control": 95.3, "outcome": "inactive"}
{"gene": "Hic1 (hypermethylated in cancer 1)", "reagent no.": 1, "GFP, % of control": 102, "viability (ATP), % of control": 87.5, "outcome": "inactive"}
{"gene": "Hic1 (hypermethylated in cancer 1)", "reagent no.": 2, "GFP, % of control": 79.6, "viability (ATP), % of control": 72.3, "outcome": "inactive"}
{"gene": "Hic1 (hypermethylated in cancer 1)", "reagent no.": 3, "GFP, % of control": 87.8, "viability (ATP), % of control": 69, "outcome": "inactive"}
{"gene": "Inpp5a (inositol polyphosphate-5-phosphatase A)", "reagent no.": 1, "GFP, % of control": 88.4, "viability (ATP), % of control": 47.1, "outcome": "inactive"}
{"gene": "Inpp5a (inositol polyphosphate-5-phosphatase A)", "reagent no.": 2, "GFP, % of control": 75.1, "viability (ATP), % of control": 56.5, "outcome": "inactive"}
{"gene": "Inpp5a (inositol polyphosphate-5-phosphatase A)", "reagent no.": 3, "GFP, % of control": 90.8, "viability (ATP), % of control": 77.3, "outcome": "inactive"}
{"gene": "Rarg (retinoic acid receptor, gamma)", "reagent no.": 1, "GFP, % of control": 119, "viability (ATP), % of control": 95.7, "outcome": "inactive"}
{"gene": "Rarg (retinoic acid receptor, gamma)", "reagent no.": 2, "GFP, % of control": 127, "viability (ATP), % of control": 78.7, "outcome": "active"}
{"gene": "Rarg (retinoic acid receptor, gamma)", "reagent no.": 3, "GFP, % of control": 41, "viability (ATP), % of control": 35.7, "outcome": "inactive"}
{"gene": "Nhlh1 (nescient helix loop helix 1)", "reagent no.": 1, "GFP, % of control": 72.4, "viability (ATP), % of control": 80.8, "outcome": "inactive"}
{"gene": "Nhlh1 (nescient helix loop helix 1)", "reagent no.": 2, "GFP, % of control": 104, "viability (ATP), % of control": 91.7, "outcome": "inactive"}
{"gene": "Nhlh1 (nescient helix loop helix 1)", "reagent no.": 3, "GFP, % of control": 81.2, "viability (ATP), % of control": 100, "outcome": "inactive"}
{"gene": "Ppard (peroxisome proliferator activator receptor delta)", "reagent no.": 1, "GFP, % of control": 47.2, "viability (ATP), % of control": 48, "outcome": "inactive"}
{"gene": "Ppard (peroxisome proliferator activator receptor delta)", "reagent no.": 2, "GFP, % of control": 136, "viability (ATP), % of control": 92.3, "outcome": "active"}
{"gene": "Ppard (peroxisome proliferator activator receptor delta)", "reagent no.": 3, "GFP, % of control": 84.2, "viability (ATP), % of control": 50, "outcome": "inactive"}
{"gene": "Ifi30 (interferon gamma inducible protein 30)", "reagent no.": 1, "GFP, % of control": 65.5, "viability (ATP), % of control": 96.5, "outcome": "inactive"}
{"gene": "Ifi30 (interferon gamma inducible protein 30)", "reagent no.": 2, "GFP, % of control": 65.4, "viability (ATP), % of control": 66.9, "outcome": "inactive"}
{"gene": "Ifi30 (interferon gamma inducible protein 30)", "reagent no.": 3, "GFP, % of control": 62.6, "viability (ATP), % of control": 48.1, "outcome": "inactive"}
{"gene": "Peg12 (paternally expressed 12)", "reagent no.": 1, "GFP, % of control": 43.9, "viability (ATP), % of control": 53.8, "outcome": "inactive"}
{"gene": "Peg12 (paternally expressed 12)", "reagent no.": 2, "GFP, % of control": 67.7, "viability (ATP), % of control": 44.6, "outcome": "inactive"}
{"gene": "Peg12 (paternally expressed 12)", "reagent no.": 3, "GFP, % of control": 63.4, "viability (ATP), % of control": 77.1, "outcome": "inactive"}
{"gene": "Ddx4 (DEAD box helicase 4)", "reagent no.": 1, "GFP, % of control": 78.8, "viability (ATP), % of control": 45.1, "outcome": "inactive"}
{"gene": "Ddx4 (DEAD box helicase 4)", "reagent no.": 2, "GFP, % of control": 59, "viability (ATP), % of control": 58.8, "outcome": "inactive"}
{"gene": "Ddx4 (DEAD box helicase 4)", "reagent no.": 3, "GFP, % of control": 112, "viability (ATP), % of control": 144, "outcome": "inactive"}
{"gene": "Hoxc8 (homeobox C8)", "reagent no.": 1, "GFP, % of control": 83.3, "viability (ATP), % of control": 115, "outcome": "inactive"}
{"gene": "Hoxc8 (homeobox C8)", "reagent no.": 2, "GFP, % of control": 54.3, "viability (ATP), % of control": 74.4, "outcome": "inactive"}
{"gene": "Hoxc8 (homeobox C8)", "reagent no.": 3, "GFP, % of control": 89.2, "viability (ATP), % of control": 71.7, "outcome": "inactive"}
{"gene": "Zmpste24 (zinc metallopeptidase, STE24)", "reagent no.": 1, "GFP, % of control": 94.2, "viability (ATP), % of control": 102, "outcome": "inactive"}
{"gene": "Zmpste24 (zinc metallopeptidase, STE24)", "reagent no.": 2, "GFP, % of control": 115, "viability (ATP), % of control": 68.1, "outcome": "inactive"}
{"gene": "Zmpste24 (zinc metallopeptidase, STE24)", "reagent no.": 3, "GFP, % of control": 69.8, "viability (ATP), % of control": 67.3, "outcome": "inactive"}
{"gene": "Taar7a (trace amine-associated receptor 7A)", "reagent no.": 1, "GFP, % of control": 86.4, "viability (ATP), % of control": 87.5, "outcome": "inactive"}
{"gene": "Taar7a (trace amine-associated receptor 7A)", "reagent no.": 2, "GFP, % of control": 78.1, "viability (ATP), % of control": 99.1, "outcome": "inactive"}
{"gene": "Taar7a (trace amine-associated receptor 7A)", "reagent no.": 3, "GFP, % of control": 81.2, "viability (ATP), % of control": 58.2, "outcome": "inactive"}
{"gene": "Ints7 (integrator complex subunit 7)", "reagent no.": 1, "GFP, % of control": 86.6, "viability (ATP), % of control": 76, "outcome": "inactive"}
{"gene": "Ints7 (integrator complex subunit 7)", "reagent no.": 2, "GFP, % of control": 96.6, "viability (ATP), % of control": 99.4, "outcome": "inactive"}
{"gene": "Ints7 (integrator complex subunit 7)", "reagent no.": 3, "GFP, % of control": 67, "viability (ATP), % of control": 63, "outcome": "inactive"}
